This data set has as its target T1, LSF (Late SV40 factor 3) (human) (UniProt Q12800).
T1 sequence (looked up, limits assumed): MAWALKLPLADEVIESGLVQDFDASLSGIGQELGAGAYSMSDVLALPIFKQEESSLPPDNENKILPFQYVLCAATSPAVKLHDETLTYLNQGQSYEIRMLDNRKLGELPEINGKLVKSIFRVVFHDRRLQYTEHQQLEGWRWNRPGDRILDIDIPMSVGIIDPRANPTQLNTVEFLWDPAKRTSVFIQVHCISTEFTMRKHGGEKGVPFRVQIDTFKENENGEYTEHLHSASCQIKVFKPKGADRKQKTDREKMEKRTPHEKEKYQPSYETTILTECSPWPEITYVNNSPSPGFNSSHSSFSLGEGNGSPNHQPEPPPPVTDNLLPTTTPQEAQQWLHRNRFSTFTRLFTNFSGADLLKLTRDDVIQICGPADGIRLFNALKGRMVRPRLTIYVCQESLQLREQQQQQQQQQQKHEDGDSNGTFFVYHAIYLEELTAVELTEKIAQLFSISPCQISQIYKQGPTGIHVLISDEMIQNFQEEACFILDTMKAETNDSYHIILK
In words: EMSA. The following applies: positive control; LightShift Chemiluminescent EMSA kit per manufacturer; 7% PAGE in 0.5x TBE; binding buffer, pH and temperature not stated; protein translated in vitro; protein details: FLAG; label: biotin end label. A general note: A gel shift assay detects complexes by their altered migration in electrophoresis.

Construct, isoform or probe ends are uncertain for at least one entry. At least one verdict was read from the data and is not stated in words by the source. Where a protein sequence is shown, tags need not be part of it.

For the sequence “CTAGCCATATGGCTGGTTATGGCTGGTCAGA / GATCTCTGACCAGCCATAACCAGCCATATGG [SV40 consensus]”, the binding result is given as “binds”.

The values above are taken from article PMC4823042, “Transcription factor LSF (TFCP2) inhibits melanoma growth”.
